B1: il10ra_site1_sap_21_mot_HHH_b1_05329_000000008_0001_43_56_H_._HHH_b2_08235_0001_0000300018_0000002_0_0001_af2pred_0001 (protein)
chain: SSSSSRAEEHAEFLIRAAEELLELGNPEAARLALRDALRTARDGNNEELAEEIEKLIEEVESSSS
B2: il10ra_site1_normal_mot_ems_3hC_416_0001_000000048_0001_1_19_H_._HHH_b1_01643_af2_0001_0000100001_0000001_1 (protein)
chain: SSSSSEENQEALELSREAFRLLLRGNEEEAKELLEEALELAKKGGNPRLARIIEELLKALNSSSS
B3: il10ra_site1_normal_mot_HHH_b2_07144_000000289_0001_1_18_H_._HHH_b1_07199_0001_0000100012_0000001_0 (protein)
chain: SSSSNEENEELYELSRRLAELIRRGNEEEARRLLEEAKELAEEANNFIARFVLRLLEEELSSSSS
B4: il10ra_site1_normal_mot_5fda0655e6834f3f331eaa9f580e88ed_0001_af2_000000239_0001_36_50_H_._a6da520ff4a02840130205282d0b8d49_0001_0001_0000100004_0000001_0_af2pr … (protein)
chain: SREYRILDAAIEAAGGDEERVEQLLEAYLEISKDPVVASVLKKLREAKAKGIPAKELLEELKAEN
B5: il10ra_site1_sap_11_mot_e1dd4851c59bc1cdde016f988f6856bd_0001_1_000000200_0001_16_31_H_._HEEHE_0643_0001_0000200004_0000002_0_0001 (protein)
chain: SSSSDEEEEESEELLKELEKLLREGDQERFIKLAAEIVRFAYEVNDEELLQAVWRLVEEFASSSS
B6: il10ra_site1_normal_mot_HHH_b1_03314_af2_000000278_0001_42_55_H_._HHH_b1_08766_0001_0000100003_0000002_0 (protein)
chain: SSSSSSSNVQFLARQAVRVIRLLNNEELLREAEELLEELEEKNDPRLLTRIHELAQEAYSSSSSS
B7: il10ra_site1_normal_mot_HHH_b1_04940_000000219_0001_1_18_H_._HHH_b2_00218_0001_0000100003_0000001_0 (protein)
chain: SSSSSEEERYLELAVRFLEQLLEQGDEEAARSMLRVVKDLAERLGDEEIKEELEEIEKELSSSSS
B8: il10ra_site1_normal_mot_HHH_b2_03220_af2_000000223_0001_23_40_H_._HHH_b1_05342_0001_0000500033_0000002_0_af2pred_0001 (protein)
chain: SSSSSSDHREVIRLLREALEIDDPEEARELVEEALELAQEAGNEELALIAEFLLRALSSSSSSSS
B9: il10ra_site1_normal_mot_HHH_b1_07219_af2_000000236_0001_1_17_H_._HHH_b1_02823_0001_0000200019_0000001_0 (protein)
chain: SSSDLEEKVKEILEELEELLERGDTEEALHLVWRALKEVAERGNKELFRLLRKVAQEILQLSSSS
B10: il10ra_site1_sap_17_mot_HHH_b1_08742_000000038_0001_1_20_H_._HHH_b1_03475_0001_0000200017_0000001_0_0001 (protein)
chain: SSSSSQEEQHARAVLWFARAALRDGDPHAAKYMLEYAAKLAEELGDEELLEEIERLLEEVNSSSS
B11: il10ra_site1_sap_21_mot_39a7b8d0c4c3fc04bafbda6ce6101d3a_0001_1_af2_000000014_0001_34_48_H_._HHH_b2_05481_0001_0000300014_0000002_0_0001 (protein)
chain: SSSSNEREAVEEVWELIRRALHIDDKEEAQEVVEEALELAEEINSRVMRQVIRWWLKELGSSSSS
B12: il10ra_site1_sap_24_mot_HHH_b2_06979_000000158_0001_42_57_H_._HHH_b1_01541_af2_0001_0000300025_0000002_0_0001_af2pred_dldesign_0_af2pred (protein)
chain: SSSDPEREALERALRYARWLLEQGAPELARRTLENALEWAERAGDPEFVKEIRAELARVEESSSS
B13: il10ra_site1_sap_19_mot_HHH_b1_03333_000000091_0001_1_17_H_._HHH_b2_06582_af2_0001_0000400013_0000001_0_0001 (protein)
chain: SSSSSAEYLVKQALKAAKRLAEQGDPEEAEKALRIAEHLAEEANDPELQRLVEEVQEEIRNSSSS
B14: il10ra_site1_sap_21_mot_HHH_b1_06804_000000054_0001_40_54_H_._HHH_b2_06339_0001_0000400038_0000001_1_0001 (protein)
chain: SSSSSDEHEEEVKELLEEAKEIDDEHERAQVLFEALRIAYEAQDKELLREVDEVAIKLYWSSSSS
B15: il10ra_site1_normal_mot_1f0bf248c09923a0581b66a675a8b92c_0001_af2_000000188_0001_52_65_H_._a6da520ff4a02840130205282d0b8d49_0001_0001_0000400022_0000001_1_af2pr … (protein)
chain: SDEVIALEAAIKAAGGDPRQVELILEAALRLLGDPAVEKVLRLLREALERGIPPEELLEELREEG
B16: il10ra_site1_sap_16_mot_HHH_b2_06857_af2_000000179_0001_42_54_H_._HHH_b1_08410_0001_0000100001_0000003_0_0001 (protein)
chain: SSSSSDAERQVRILLWAAKRIEDPHLRRVVLRLARENAEWQNDPEAEKLVEEVEEELEEKSSSSS
B17: il10ra_site1_sap_13_mot_HHH_b1_03273_000000263_0001_1_14_H_._HHH_b2_04095_af2_0001_0000200015_0000001_0_0001_af2pred_0001 (protein)
chain: SSSSDEEEFQERVEELLEEAKKISDRHEVTYLMIRAFALANQANDPELEKLVKEVAQELSSSSSS
B18: il10ra_site1_sap_21_mot_0eddeacbb14b769e73e254714f31e2f9_0001_af2_000000203_0001_37_51_H_._HHH_b1_06326_0001_0000400030_0000001_0_0001_af2pred_dldesign_0_af2pre … (protein)
chain: SPREEALREVAKRAGIPEAVFEYMREQAEKDAGGDPEATLEALARRLSLLAPPELQPALAAVLAA
B19: il10ra_site1_sap_27_mot_HHH_b2_02354_af2_000000157_0001_40_56_H_._HHH_b1_02176_0001_0000100006_0000002_0_0001 (protein)
chain: SSSSDEEERLKELLEELEELLEEGDDERFLKVAQEILRLAFQLGDEEALQAVWRLAKRSRSSSSS

This is one part of the list.

In this test the target is il10ra, Q13651. Kind of test: yeast display titration.
In the case of B1, the “apparent Kd” value is “inactive: no binding seen”. The entry for B2 is “inactive: no binding seen”; for B3 it is “inactive: no binding seen”; for B4 it is “inactive: no binding seen”.

Take B5: the “apparent Kd” value is “inactive: no binding seen”. As for B6, the “apparent Kd” value was “inactive: no binding seen”.

For the molecule B7, the “apparent Kd” value was “inactive: no binding seen”. Under B8 stands “inactive: no binding seen”; under B9, “inactive: no binding seen”; under B10, “inactive: no binding seen”. The entry for B11 is “inactive: no binding seen”. The entry for B12 is “inactive: no binding seen”; for B13 it is “inactive: no binding seen”. B14: the “apparent Kd” value is “inactive: no binding seen”. The entry for B15 is “inactive: no binding seen”; for B16 it is “inactive: no binding seen”; for B17 it is “inactive: no binding seen”. Under B18 stands “inactive: no binding seen”; under B19, “inactive: no binding seen”.

These data come from article PMC10163288.
